Data reported in PMC9804084, “Multiple drug transporters contribute to the brain transfer of levofloxacin” (CNS Neuroscience & Therapeutics, 2022).

Experiment: Microdialysis probe in vivo recovery of LVFX by reverse dialysis
Design: species or system rat
Conditions: 2 μl/min

C[C@H]1COc2c(N3CCN(C)CC3)c(F)cc3c(=O)c(C(=O)O)cn1c23 [LVFX, Levofloxacin]
mean in vivo recovery (R dial) (probe in blood, 5 μg/ml LVFX in ACD solution): 32.31 ± 5.93% | mean in vivo recovery (R dial) (probe in hippocampus ECF, 0.5 μg/ml LVFX in ACSF): 4.98 ± 0.42% | mean in vivo recovery (R dial) (probe in lateral ventricle CSF, 0.5 μg/ml LVFX in ACSF): 4.17 ± 0.43%
